Test results: PubChem BioAssay AID602313 (National Center for Advancing Translational Sciences (NCATS), 2012)
The campaign covered roughly 390,000 compounds. About 760 (0.19%) were called active. The inconclusive results got no clear call from the source; some entries with a clear call stand among them for comparison. The call rests on the fitted dose curve; in most records, active means well fitted inhibition curve with a large enough effect; inconclusive means small, poorly fitted or top-dose-only effect; inactive means flat fitted curve, though single readings scatter. Potencies beside an inconclusive call are fits to weak or partial responses and may not hold up.

Test: qHTS for Inhibitors of Vif-A3F Interactions: qHTS; further: nearly all actives have a fitted effect of over 65% in size
Settings: HeLa A3F-eYFP + Vif (tagged APOBEC3F with the HIV-1 protein that degrades it), YFP fluorescence increase; series mostly up to 46.1 µM
Outline: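 HeLa cells stably expressing Vif plus C-terminally eYFP-tagged A3F were seeded, incubated overnight at 37 deg C, dosed with compound, incubated overnight again at 37 deg C. Yellow fluorescence (Ex 488/Em 500-530) reported blocked Vif-mediated A3F-eYFP degradation.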
Potency means the concentration at half of the fitted maximal effect.

Compound	Potency
COC(=O)C1=C(C)NC(=S)NC1c1sccc1C (stereo not drawn)	inconclusive: 35.5 µM [inhibitor, single point]
O=C1/C(=C/c2cccnc2)Oc2cc(OS(=O)(=O)c3ccccc3)ccc21	inconclusive: 35.5 µM [inhibitor, single point]
CCn1c(=O)n(CC)c2cc(S(=O)(=O)Nc3ccccc3C)c(C)cc21	inactive
COc1ccc(/C=C(\C#N)c2nc(-c3cc4ccccc4oc3=O)cs2)cc1OC	inconclusive: 31.6 µM [inhibitor, single point]
O=C(Nc1ccc(Cl)cc1C(F)(F)F)c1cc(S(=O)(=O)NCc2ccccc2)ccc1F	inconclusive: 35.5 µM [inhibitor, single point]
COc1ccccc1/C=C/C1C(C(=O)OCC(C)C)=C(C)N=C2SCCC(=O)N21 (stereo not drawn)	inactive
CCOC(=O)c1cc(C#N)c(SCC(N)=O)[nH]c1=O	inconclusive: 25.1 µM [inhibitor, single point]
CCN(CC)C(=O)CSC(Nc1ccc(F)cc1)=C(C#N)C#N	inconclusive: 12.6 µM [inhibitor, partial curve, poor fit]
CN1CCc2c(sc3c2C(=O)NC(c2ccc(-c4ccc(Cl)cc4)o2)N3)C1 (stereo not drawn)	active: 28.2 µM
Cc1ccc(Cl)cc1N1CCN(C(=O)c2cn(C)c3ccc(S(=O)(=O)N4CCCC4)cc3c2=O)CC1	inactive
CC(=O)N(\C=C/C=C/C=C1\Sc2ccccc2C1=O)c1ccccc1	inconclusive: 15.8 µM [inhibitor, partial curve, poor fit]
Cc1ccc(/C=N/n2c(C3CCCCC3)n[nH]c2=S)o1	inconclusive: 31.6 µM [inhibitor, single point]
COc1ccccc1N1CCN(C(=O)c2cc3c(=O)n(Cc4cccnc4)ccc3nc2C)CC1	inactive
OC(c1cc(-c2ccc(C(F)(F)F)cc2)nc(C(F)(F)F)c1)C1CCCCN1 (stereo not drawn)	inactive
O=C1NC2(CCCCC2)C(=O)N1CC(=O)N1CCc2ccccc21	inconclusive: 35.5 µM [inhibitor, single point]
CCCCC1(Cc2ccc([N+](=O)[O-])cc2)C(=O)N(c2ccccc2)N(c2ccccc2)C1=O	inactive
Cc1c(N/N=C(\C#N)C(=O)c2ccc(Cl)cc2)c(=O)n(-c2ccccc2)n1C	inconclusive: 12.6 µM [inhibitor, partial curve]
CCOC(=O)C1CCCN(C2=NC(=O)/C(=C/c3ccc(N(C)C)cc3)S2)C1 (stereo not drawn)	inconclusive: 17.8 µM [inhibitor, partial curve, poor fit]
COC(=O)Nc1ccc(S(=O)(=O)NNC(=O)c2c(O)c3ccccc3[nH]c2=O)cc1	inconclusive: 35.5 µM [inhibitor, single point]
O=[N+]([O-])c1cc(S(=O)(=O)C(F)(F)F)ccc1Sc1nc2ccccc2s1	inactive
O=C1C(C2=C(O)c3ccccc3C2=O)=Nc2ccccc21	inconclusive: 35.5 µM [inhibitor, single point]
CN1/C(=C\C(=O)COC(=O)c2ccc(O)c(O)c2)C(C)(C)c2ccccc21	inconclusive: 3.98 µM [inhibitor, single point]

Some of these compounds in order of length of the SMILES, smallest number first.
Compound	Potency
CCOC(=O)c1cc(C#N)c(SCC(N)=O)[nH]c1=O	inconclusive: 25.1 µM [inhibitor, single point]
Cc1ccc(/C=N/n2c(C3CCCCC3)n[nH]c2=S)o1	inconclusive: 31.6 µM [inhibitor, single point]
CC(=O)N(\C=C/C=C/C=C1\Sc2ccccc2C1=O)c1ccccc1	inconclusive: 15.8 µM [inhibitor, partial curve, poor fit]

Further results:

Compound	Potency
COc1ccc(C2CC23N=C(c2ccccc2)OC3=O)cc1 (stereo not drawn)	inactive
COc1cccc(N2CCN(C(=S)NCc3ccco3)CC2)c1	inconclusive: 5.62 µM [inhibitor, single point]
CC(C)N1CCc2c(sc(NC(=O)c3nc4ccccc4s3)c2C(N)=O)C1	inconclusive: 22.4 µM [inhibitor, single point]
Nc1c(N(Cc2ccco2)C(=O)COc2ccccc2F)c(=O)[nH]c(=O)n1Cc1ccccc1	inconclusive: 28.2 µM [inhibitor, single point]
COCCNc1ccc(-c2nn(C)c(=O)c3ccccc23)cc1[N+](=O)[O-]	inconclusive: 3.55 µM [inhibitor, single point]
Cc1cc(O)c(C(C)C)cc1C1(c2cc(C(C)C)c(O)cc2C)OC(=O)c2ccccc21	inconclusive: 3.55 µM [inhibitor, single point]
CCCn1c(=O)c2sccc2n2c(CCCC(=O)Nc3cccc(CC)c3)nnc12	inactive
Cc1cc2ncn(/N=C/c3ccc([N+](=O)[O-])o3)c2cc1C	inconclusive: 17.8 µM [inhibitor, partial curve, poor fit]
CCN1CCN(C(=O)Cn2ncc3c([nH]c4ccccc43)c2=O)CC1	inactive
CC(C)c1ccc2nc3sc(C(=O)N4CCc5ccccc5C4)c(N)c3cc2c1	inconclusive: 35.5 µM [inhibitor, single point]
O=C(Nc1ccc(CN2CCOCC2)cc1)c1ccc(-c2ccc(Cl)cc2Cl)o1	inconclusive: 35.5 µM [inhibitor, single point]
COC(=O)CC1Oc2ccccc2-n2cc(-c3ccc(Cl)cc3)nc21 (stereo not drawn)	inactive
COc1ccc2c(C)cc(SCC(=O)N(C)C3CCS(=O)(=O)C3)nc2c1 (stereo not drawn)	active: 11.2 µM
CCOC(=O)Nc1ccc2c(c1)C(=NNC(=S)NC)c1ccccc1-2	inconclusive: 0.631 µM [inhibitor, full curve, poor fit]
COCCN(C(=O)CCC(=O)Nc1nccs1)C(C(=O)NC(C)(C)C)c1ccc(Cl)cc1 (stereo not drawn)	inconclusive: 35.5 µM [inhibitor, single point]
CCOc1ccc(NC(=O)Cn2c(=O)n(CCC(=O)NCCc3ccccc3)c(=O)c3ccccc32)cc1	inactive
Oc1ccc(Nc2nc(-c3ccccc3)nc3ccccc23)cc1	inactive
CCN(c1ccc(NC(=O)CCc2nc3sc4c(c3c(=O)[nH]2)CCCC4)cc1)C(C)C	inconclusive: 12.6 µM [inhibitor, partial curve]
COc1ccc(/C=c2\s/c(=C/C(=O)c3ccc(C)cc3)[nH]c2=O)c(OC)c1	active: 25.1 µM
Cc1ccc(OCC(=O)Nc2ccccc2N2CCCC2)c(C)c1	inconclusive: 35.5 µM [inhibitor, single point]
Cc1ccc(S(=O)(=O)N2CCCC(C(=O)O)C2)s1 (stereo not drawn)	inactive
